According to article PMC11199634:

Key:
[1] = target: LgBiT-PP1α (human); assay: split reporter; lysate-based split-luciferase, HEK293T lysates with LgBiT and SmBiT fusions mixed, room temperature, endpoint after 15 min; signals normalized for expression
[2] = target: LgBiT-PP1α (human); assay: split reporter; lysate-based split-luciferase, kinetic traces at 20-s intervals, room temperature; competitor added after assembly
[3] = target: LgBiT-PP1α (human); assay: split reporter; lysate-based split-luciferase kinetic traces; purified competitor (5 µM NIPP1-(143–224), or 10 μM SDS22-WT or SDS22-E192A) added to the lysates; only the binder purified

B1: I2-SmBiT (protein, UniProt P41236 1-205)
chain: MAASTASHRPIKGILKNKTSTTSSMVASAEQPRGNVDEELSKKSQKWDEMNILATYHPADKDYGLMKIDEPSTPYHSMMGDDEDACSDTEATEAMAPDILARKLAAAEGLEPKYRIQEQESSGEEDSDLSPEEREKKRQFEMKRKLHYNEGLNIKLARQLISKDLHDDDEDEEMLETADGESMNTEESNQGSTPSDQQQNKLRSS
In the case of B1, the binding [1] is reported as “binds”.

B2: RM-SmBiT (protein, UniProt Q69YH5 1-1023)
chain: MDANSKDKPPETKESAMNNAGNASFILGTGKIVTPQKHAELPPNPCTPDTFKSPLNFSTVTVEQLGITPESFVRNSAGKSSSYLKKCRRRSAVGARGSPETNHLIRFIARQQNIKNARKSPLAQDSPSQGSPALYRNVNTLRERISAFQSAFHSIKENEKMTGCLEFSEAGKESEMTDLTRKEGLSACQQSGFPAVLSSKRRRISYQRDSDENLTDAEGKVIGLQIFNIDTDRACAVETSVDLSEISSKLGSTQSGFLVEESLPLSELTETSNALKVADCVVGKGSSDAVSPDTFTAEVSSDAVPDVRSPATPACRRDLPTPKTFVLRSVLKKPSVKMCLESLQEHCNNLYDDDGTHPSLISNLPNCCKEKEAEDEENFEAPAFLNMRKRKRVTFGEDLSPEVFDESLPANTPLRKGGTPVCKKDFSGLSSLLLEQSPVPEPLPQPDFDDKGENLENIEPLQVSFAVLSSPNKSSISETLSGTDTFSSSNNHEKISSPKVGRITRTSNRRNQLVSVVEESVCNLLNTEVQPCKEKKINRRKSQETKCTKRALPKKSQVLKSCRKKKGKGKKSVQKSLYGERDIASKKPLLSPIPELPEVPEMTPSIPSIRRLGSGYFSSNGKLEEVKTPKNPVKRKDLLRHDPDLHMHQGYDKYDVSEFCSYIKSSSSLGNATSDEDPNTNIMNINENKNIPKAKNKSESENEPKAGTDSPVSCASVTEERVASDSPKPALTLQQGQEFSAGGQNAENLCQFFKISPDLNIKCERKDDFLGAAEGKLQCNRLMPNSQKDCHCLGDVLIENTKESKSQSEDLGRKPMESSSVVSCRDRKDRRRSMCYSDGRSLHLEKNGNHTPSSSVGSSVEISLENSELFKDLSDAIEQTFQRRNSETKVRRSTRLQKDLENEGLVWISLPLPSTSQKAKRRTICTFDSSGFESMSPIKETVSSRQKPQMAPPVSDPENSQGPAAGSSDEPGKRRKSFCISTLANTKATSQFKGYRRRSSLNGKGESSLTALERIEHNGERKQ
With B2 the binding [2] was “binds”.

B3: SDS22-SmBiT (protein, UniProt Q15435 1-360)
chain: MAAERGAGQQQSQEMMEVDRRVESEESGDEEGKKHSSGIVADLSEQSLKDGEERGEEDPEEEHELPVDMETINLDRDAEDVDLNHYRIGKIEGFEVLKKVKTLCLRQNLIKCIENLEELQSLRELDLYDNQIKKIENLEALTELEILDISFNLLRNIEGVDKLTRLKKLFLVNNKISKIENLSNLHQLQMLELGSNRIRAIENIDTLTNLESLFLGKNKITKLQNLDALTNLTVLSMQSNRLTKIEGLQNLVNLRELYLSHNGIEVIEGLENNNKLTMLDIASNRIKKIENISHLTELQEFWMNDNLLESWSDLDELKGARSLETVYLERNPLQKDPQYRRKVMLALPSVRQIDATFVRF
B3 was tested, and the binding [2] was “binds”.

B4: SDS22 (tag-free, purified) (protein, UniProt Q15435 1-360)
chain: MAAERGAGQQQSQEMMEVDRRVESEESGDEEGKKHSSGIVADLSEQSLKDGEERGEEDPEEEHELPVDMETINLDRDAEDVDLNHYRIGKIEGFEVLKKVKTLCLRQNLIKCIENLEELQSLRELDLYDNQIKKIENLEALTELEILDISFNLLRNIEGVDKLTRLKKLFLVNNKISKIENLSNLHQLQMLELGSNRIRAIENIDTLTNLESLFLGKNKITKLQNLDALTNLTVLSMQSNRLTKIEGLQNLVNLRELYLSHNGIEVIEGLENNNKLTMLDIASNRIKKIENISHLTELQEFWMNDNLLESWSDLDELKGARSLETVYLERNPLQKDPQYRRKVMLALPSVRQIDATFVRF
In the case of B4, the binding [3] is reported as “binds”.

No constants are given. Whether binding was seen depends on the method and setting. In cells and extracts the contact can be indirect. Binding calls can cover weak binding; strength is not graded here. For some of these results: Sequences can lack the tags named with a protein.
